Experimental data: US20190010461A1, “HUMAN PLURIPOTENT STEM CELL-BASED SCREENING FOR SMOOTH MUSCLE CELL DIFFERENTIATION AND DISEASE” (Wisconsin Alumni Research Foundation, priority 2017, published 2019)
For at least one compound, name, drawing or mass did not settle the structure. Some entries repeat one wording, which the source may state once for all of them.

Tested on: MYH11 promoter-driven luciferase activity
Assay: High-throughput screening, MYH11-Nluc-2A-Tom reporter human ES cell line, luciferase assay
Format: cell-based
Settings: small molecules added day 4-14; selected when normalized reads > average+3×STDEV
Method: FIGS. 1A-1C depict a schematic of high-throughput screening. […] The cells were passaged at day 4 and seeded on the 96-well plate for screening (2×10^6 cells/plate). After the reporter cell line was differentiated into mesoderm, small molecules were added to the cells from day 4 to day 14. FIG. 1B depicts the results of the screening in two batches. The luciferase assay results of individual small molecules were normalized to the average reads of all samples for each batch. The small molecules were selected for further analysis when the normalized reads were greater than “average+3×STDEV”. FIG. 1C depicts optimizing the concentration of the selected small molecules.
The cells were treated with 50 ng/ml FGF2 and 20 ng/ml BMP4 for another two days. The cells were passaged at day 4 and seeded on the 96-well plate for screening (2×10^6 cells/plate). The compounds were added from day 4-14. The Luciferase substrate (1000× dilution) (Nano-Glo Luciferase Assay system, Promega) was added to the medium for 15 min and luminescence was measured. An increase in luminescence indicates increased MYH11 expression, which is an indicator of the contractile smooth muscle cell phenotype. […]

CCCCc1ccc(C(=O)O)nc1 [fusaric acid, Fusaric acid]
promotes MYH11+ SMC differentiation (increased MYH11 promoter-driven luciferase activity): promotes MYH11^+ SMC differentiation
